Measurements reported in US20230272089A1 (SYNTHEKINE, published 2023).
No constants are given. Whether binding was seen depends on the method and setting. Some results given as binding are weak or reduced against the parent protein; the word gives no strength.

Biological target: T1, mIL2Rg ECD antigen (mouse) (UniProt P34902)
T1 sequence: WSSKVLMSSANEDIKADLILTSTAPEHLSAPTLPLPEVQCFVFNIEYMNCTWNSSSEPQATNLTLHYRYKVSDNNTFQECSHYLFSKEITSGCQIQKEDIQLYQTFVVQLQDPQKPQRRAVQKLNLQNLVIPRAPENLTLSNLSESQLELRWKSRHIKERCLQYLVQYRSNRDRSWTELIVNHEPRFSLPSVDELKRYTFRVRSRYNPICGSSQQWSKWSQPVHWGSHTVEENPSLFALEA
Assay: periplasmic extract ELISA (PE-ELISA) of phage clones after biopanning

- binding: binds
B1: mIL2Rg_VHH13 (VHH, not shown: large carriers)
VHH: QVQLQESGGGSVLAGGSLRLSCVASGYGYNYIGWFRQTPGKEREGVAVIYTGGGDTYYADSVKGRFTASRDNAKSTLYLQMNSLEPEDTAMYYCVARYCVGSVYACLRGGHDEYAHWGQGTQVTVSS
